This note sets out measurements from paper PMC7673040.

Numbering of substitutions follows the chain as printed. These are yes or no findings as the source states them, for the method shown. Binding seen in cells or lysates may run through a third protein. Binding calls can cover weak binding; strength is not graded here.

For experiment [1], the target named is T1, SRα GTP hydrolysis mutant (R458A) (human) (UniProt P08240).
T1 sequence: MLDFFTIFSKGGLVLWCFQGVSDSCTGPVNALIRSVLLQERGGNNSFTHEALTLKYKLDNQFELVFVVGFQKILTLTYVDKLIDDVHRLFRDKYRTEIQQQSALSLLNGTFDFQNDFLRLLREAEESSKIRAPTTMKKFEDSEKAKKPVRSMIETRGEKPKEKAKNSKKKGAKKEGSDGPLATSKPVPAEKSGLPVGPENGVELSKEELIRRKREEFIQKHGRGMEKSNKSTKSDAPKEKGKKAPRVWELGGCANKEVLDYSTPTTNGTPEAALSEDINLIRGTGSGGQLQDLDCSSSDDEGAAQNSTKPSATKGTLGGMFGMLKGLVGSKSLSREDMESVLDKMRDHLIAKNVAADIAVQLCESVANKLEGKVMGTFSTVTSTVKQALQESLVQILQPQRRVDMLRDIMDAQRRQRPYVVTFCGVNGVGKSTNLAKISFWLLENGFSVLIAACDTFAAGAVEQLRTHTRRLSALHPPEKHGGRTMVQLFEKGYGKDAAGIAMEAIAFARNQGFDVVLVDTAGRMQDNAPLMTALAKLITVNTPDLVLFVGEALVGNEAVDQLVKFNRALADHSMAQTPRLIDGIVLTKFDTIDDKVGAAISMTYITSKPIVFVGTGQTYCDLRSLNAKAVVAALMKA
Kind of experiment: co-purification; SRα (wildtype or R458A) and SRβΔTM co-expressed in E. coli BL21(DE3); Ni-Sepharose, MonoS, Superdex 200.

Experiment [2] has as its target T2, SRα wildtype (human) (UniProt P08240).
T2 sequence: T1 sequence with A458R
The description is as above.

Turning to SRβΔTM (human) (domain or fragment), the binding entry in experiment [1] and in experiment [2] was “binds” each time.
